Reference: the supplement of paper PMC10849652
The other results are listed elsewhere or left out.

Sequences of proteins named here, by UniProt entry; tags and fusion partners are left off. A change or cut given only in a name is not applied to a line headed by its entry.
UniProt Q8TAE6: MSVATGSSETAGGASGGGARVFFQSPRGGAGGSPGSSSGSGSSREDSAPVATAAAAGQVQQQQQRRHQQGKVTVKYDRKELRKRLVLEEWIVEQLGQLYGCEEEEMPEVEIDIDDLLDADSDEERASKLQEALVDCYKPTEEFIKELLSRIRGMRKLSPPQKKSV
UniProt P55345: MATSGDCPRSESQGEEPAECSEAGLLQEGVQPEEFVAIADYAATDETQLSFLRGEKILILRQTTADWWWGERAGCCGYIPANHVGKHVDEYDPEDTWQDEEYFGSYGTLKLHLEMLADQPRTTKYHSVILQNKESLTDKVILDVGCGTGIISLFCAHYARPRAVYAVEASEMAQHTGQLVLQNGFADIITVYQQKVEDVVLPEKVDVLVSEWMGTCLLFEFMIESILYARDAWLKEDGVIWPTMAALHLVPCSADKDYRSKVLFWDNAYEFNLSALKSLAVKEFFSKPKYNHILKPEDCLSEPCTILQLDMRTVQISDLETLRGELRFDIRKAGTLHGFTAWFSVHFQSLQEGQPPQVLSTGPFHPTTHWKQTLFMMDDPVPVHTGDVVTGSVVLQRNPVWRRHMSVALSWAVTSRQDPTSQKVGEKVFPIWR
UniProt P53041: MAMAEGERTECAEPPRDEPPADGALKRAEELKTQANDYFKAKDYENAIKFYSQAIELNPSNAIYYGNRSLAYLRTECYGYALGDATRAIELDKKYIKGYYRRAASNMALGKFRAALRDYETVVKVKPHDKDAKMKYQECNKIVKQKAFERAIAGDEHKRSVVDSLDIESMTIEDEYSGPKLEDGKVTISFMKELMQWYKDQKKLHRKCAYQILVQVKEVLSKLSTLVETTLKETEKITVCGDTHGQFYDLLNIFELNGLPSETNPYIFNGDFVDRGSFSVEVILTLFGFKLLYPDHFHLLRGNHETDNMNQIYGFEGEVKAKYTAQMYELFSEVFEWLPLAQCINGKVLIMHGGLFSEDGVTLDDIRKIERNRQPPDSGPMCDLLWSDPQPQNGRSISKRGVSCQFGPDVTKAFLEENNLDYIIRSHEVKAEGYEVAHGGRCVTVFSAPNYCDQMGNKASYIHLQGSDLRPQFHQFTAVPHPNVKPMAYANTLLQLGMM
UniProt O43395: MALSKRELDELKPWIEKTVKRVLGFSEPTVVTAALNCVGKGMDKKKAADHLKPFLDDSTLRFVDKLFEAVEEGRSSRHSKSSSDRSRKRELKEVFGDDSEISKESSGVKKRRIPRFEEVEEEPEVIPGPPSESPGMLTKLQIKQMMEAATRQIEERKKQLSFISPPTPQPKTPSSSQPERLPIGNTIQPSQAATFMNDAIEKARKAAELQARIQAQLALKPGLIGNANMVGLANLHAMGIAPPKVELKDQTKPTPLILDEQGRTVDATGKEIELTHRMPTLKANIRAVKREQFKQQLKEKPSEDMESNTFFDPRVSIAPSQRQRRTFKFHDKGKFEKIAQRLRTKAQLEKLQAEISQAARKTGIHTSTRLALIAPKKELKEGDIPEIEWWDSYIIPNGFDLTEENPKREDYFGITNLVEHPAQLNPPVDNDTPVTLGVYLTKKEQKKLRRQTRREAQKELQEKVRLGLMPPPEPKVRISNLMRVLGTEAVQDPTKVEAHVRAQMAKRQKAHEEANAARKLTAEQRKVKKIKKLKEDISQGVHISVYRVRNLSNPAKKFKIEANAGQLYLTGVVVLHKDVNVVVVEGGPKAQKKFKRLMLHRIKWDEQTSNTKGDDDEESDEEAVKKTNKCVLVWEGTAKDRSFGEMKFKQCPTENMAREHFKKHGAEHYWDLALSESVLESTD
UniProt P78527, whole entry, looked up: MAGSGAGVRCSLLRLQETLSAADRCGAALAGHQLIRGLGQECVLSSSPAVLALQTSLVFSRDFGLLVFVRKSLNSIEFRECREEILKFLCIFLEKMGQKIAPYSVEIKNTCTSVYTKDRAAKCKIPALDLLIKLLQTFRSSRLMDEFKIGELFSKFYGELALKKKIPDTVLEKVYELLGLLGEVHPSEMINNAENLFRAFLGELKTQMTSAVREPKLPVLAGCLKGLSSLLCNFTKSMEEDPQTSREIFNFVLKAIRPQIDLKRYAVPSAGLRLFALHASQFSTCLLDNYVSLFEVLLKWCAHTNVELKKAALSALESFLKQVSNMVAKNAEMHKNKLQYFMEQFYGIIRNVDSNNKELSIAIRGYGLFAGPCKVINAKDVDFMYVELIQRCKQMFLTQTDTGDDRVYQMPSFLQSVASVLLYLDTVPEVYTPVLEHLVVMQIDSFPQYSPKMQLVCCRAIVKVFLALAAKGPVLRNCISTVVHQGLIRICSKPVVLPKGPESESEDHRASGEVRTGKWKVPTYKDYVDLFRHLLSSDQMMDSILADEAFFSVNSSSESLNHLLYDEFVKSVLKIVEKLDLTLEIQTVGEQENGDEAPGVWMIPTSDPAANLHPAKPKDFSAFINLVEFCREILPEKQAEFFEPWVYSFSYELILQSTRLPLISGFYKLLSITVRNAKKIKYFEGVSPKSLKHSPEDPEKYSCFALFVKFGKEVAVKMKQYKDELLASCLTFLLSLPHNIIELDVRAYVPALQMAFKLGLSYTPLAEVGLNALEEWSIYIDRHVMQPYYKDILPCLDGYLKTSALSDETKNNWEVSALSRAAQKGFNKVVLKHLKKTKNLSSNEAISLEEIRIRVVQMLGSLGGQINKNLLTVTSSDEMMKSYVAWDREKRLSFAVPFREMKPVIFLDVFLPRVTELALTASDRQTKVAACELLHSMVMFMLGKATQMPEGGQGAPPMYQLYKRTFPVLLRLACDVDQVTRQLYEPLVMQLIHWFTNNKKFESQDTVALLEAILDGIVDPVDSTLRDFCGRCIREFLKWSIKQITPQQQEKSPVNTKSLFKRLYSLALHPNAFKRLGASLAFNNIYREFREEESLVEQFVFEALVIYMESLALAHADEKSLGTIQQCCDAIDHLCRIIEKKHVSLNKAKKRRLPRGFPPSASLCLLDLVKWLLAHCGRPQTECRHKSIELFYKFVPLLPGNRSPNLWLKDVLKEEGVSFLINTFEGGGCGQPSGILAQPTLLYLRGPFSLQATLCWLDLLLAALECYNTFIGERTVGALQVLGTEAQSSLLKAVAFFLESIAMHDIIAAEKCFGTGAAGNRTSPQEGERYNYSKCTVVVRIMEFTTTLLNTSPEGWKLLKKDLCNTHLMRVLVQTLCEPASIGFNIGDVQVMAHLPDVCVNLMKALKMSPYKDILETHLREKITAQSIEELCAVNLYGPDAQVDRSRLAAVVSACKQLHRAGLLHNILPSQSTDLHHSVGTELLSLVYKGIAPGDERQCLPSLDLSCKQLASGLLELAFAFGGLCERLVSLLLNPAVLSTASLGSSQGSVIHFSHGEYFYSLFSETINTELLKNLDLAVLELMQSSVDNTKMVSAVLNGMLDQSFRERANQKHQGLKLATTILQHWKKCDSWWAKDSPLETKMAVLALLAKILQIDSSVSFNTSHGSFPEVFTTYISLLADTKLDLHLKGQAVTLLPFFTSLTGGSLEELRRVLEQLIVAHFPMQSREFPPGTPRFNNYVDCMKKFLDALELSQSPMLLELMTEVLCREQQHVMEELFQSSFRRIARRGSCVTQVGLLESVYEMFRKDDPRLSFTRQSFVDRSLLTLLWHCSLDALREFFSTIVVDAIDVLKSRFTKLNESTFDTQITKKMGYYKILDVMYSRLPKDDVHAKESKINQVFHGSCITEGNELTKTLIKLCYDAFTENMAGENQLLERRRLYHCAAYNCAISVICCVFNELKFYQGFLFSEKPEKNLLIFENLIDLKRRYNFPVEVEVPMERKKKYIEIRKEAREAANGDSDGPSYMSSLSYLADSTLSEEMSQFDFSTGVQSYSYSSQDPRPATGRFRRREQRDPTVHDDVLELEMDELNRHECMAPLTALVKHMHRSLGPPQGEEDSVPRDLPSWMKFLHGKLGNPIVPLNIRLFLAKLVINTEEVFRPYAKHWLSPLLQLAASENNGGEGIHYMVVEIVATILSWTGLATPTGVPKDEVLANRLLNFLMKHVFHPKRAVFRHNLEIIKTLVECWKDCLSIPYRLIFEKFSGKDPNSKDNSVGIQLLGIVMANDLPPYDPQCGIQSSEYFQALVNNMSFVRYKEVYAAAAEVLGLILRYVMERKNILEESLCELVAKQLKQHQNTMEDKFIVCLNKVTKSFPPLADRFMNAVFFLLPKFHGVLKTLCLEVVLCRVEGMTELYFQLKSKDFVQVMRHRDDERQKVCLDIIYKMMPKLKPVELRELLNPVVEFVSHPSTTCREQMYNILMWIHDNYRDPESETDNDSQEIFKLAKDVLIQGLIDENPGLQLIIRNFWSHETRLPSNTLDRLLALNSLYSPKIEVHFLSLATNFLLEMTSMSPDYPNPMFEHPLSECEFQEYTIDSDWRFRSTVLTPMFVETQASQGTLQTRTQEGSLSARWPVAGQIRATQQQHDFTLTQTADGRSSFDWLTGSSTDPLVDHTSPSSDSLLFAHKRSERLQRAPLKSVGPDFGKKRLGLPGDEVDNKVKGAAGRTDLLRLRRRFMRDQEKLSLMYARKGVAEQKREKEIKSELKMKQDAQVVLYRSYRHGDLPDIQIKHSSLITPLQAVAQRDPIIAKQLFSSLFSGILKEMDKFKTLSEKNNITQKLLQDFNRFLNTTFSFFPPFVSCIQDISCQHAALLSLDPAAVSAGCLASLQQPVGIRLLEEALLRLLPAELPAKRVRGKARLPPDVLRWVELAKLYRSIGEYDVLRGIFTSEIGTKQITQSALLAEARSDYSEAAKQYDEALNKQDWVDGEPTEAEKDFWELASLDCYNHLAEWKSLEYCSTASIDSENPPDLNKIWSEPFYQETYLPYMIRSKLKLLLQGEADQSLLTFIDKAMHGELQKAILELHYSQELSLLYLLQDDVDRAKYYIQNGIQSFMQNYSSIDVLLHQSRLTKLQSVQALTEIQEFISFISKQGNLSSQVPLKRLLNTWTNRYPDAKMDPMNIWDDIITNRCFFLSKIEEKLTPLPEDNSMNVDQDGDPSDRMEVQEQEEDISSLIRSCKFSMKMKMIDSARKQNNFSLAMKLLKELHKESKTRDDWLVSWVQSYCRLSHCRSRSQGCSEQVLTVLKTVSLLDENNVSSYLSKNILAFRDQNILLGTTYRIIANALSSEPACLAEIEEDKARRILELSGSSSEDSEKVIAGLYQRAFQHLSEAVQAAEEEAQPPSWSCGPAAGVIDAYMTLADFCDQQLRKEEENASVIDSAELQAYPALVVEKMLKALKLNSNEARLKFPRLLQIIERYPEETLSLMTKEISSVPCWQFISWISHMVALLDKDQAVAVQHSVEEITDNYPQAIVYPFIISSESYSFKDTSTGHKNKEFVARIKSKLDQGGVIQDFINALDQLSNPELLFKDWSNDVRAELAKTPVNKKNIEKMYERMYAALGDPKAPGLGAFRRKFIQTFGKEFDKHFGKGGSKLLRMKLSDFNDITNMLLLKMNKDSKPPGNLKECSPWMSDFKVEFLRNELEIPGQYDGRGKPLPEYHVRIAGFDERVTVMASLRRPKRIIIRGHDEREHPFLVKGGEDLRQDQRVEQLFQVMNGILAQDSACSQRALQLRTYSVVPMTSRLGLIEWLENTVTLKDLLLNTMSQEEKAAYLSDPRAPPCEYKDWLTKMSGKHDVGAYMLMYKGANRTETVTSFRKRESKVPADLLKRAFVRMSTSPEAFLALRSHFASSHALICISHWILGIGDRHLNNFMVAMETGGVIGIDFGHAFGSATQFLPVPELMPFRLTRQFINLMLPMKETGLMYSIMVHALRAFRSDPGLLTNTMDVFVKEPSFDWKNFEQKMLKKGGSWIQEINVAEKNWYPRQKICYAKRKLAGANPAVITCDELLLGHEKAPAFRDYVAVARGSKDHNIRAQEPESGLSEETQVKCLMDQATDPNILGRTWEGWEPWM
UniProt P51817: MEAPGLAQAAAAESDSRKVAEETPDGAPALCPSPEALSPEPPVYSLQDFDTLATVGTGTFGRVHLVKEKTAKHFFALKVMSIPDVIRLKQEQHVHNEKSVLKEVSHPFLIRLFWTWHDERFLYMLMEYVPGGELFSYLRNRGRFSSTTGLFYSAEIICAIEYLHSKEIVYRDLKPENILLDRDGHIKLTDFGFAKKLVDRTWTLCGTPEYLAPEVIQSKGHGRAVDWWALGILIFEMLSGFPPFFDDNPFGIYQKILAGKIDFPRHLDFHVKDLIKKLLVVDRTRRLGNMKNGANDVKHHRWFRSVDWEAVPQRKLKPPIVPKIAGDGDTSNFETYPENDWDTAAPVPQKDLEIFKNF
UniProt P30044: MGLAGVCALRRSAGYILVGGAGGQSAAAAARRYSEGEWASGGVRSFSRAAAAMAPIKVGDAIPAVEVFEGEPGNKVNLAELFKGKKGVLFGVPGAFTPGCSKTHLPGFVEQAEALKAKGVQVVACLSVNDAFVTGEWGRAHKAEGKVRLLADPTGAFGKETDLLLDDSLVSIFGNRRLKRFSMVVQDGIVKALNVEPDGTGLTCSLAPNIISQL

Tests used:
Assay in all cases: log2 fold change, soluble protein after heating vs DMSO (PISA); higher = thermal stabilisation; K562 lysate, 10 uM; active = over 0.2 and 3.5 SD of the protein, either way, in both replicates (recomputed)
vemurafenib = compound: CCCS(=O)(=O)Nc1ccc(F)c(C(=O)c2c[nH]c3ncc(-c4ccc(Cl)cc4)cc23)c1F [vemurafenib]
Method in brief: (§1)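 Soluble protein was defined as the supernatant remaining after 21,000xg for 90 min, following pooling of heated aliquots and adjustment to 0.5% NP-40 at 4°C. Before that, crude K562 extract at 1 mg/mL protein in PBS pH 7.4 with 1 mM MgCl2 was treated with 10 μM compound for 30 min and heated for 3 min across 48°C-58°C. Quantification used TMTpro 16plex LC-MS/MS with channel sums equalised, and values are log-two fold changes in thermal stability relative to solvent controls from duplicates.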

[1] = compound: CCCS(=O)(=O)Nc1ccc(F)c(C(=O)c2c[nH]c3ncc(Cl)cc23)c1F
Method in brief: as §1

barasertib = compound: CCN(CCCOc1ccc2c(Nc3cc(CC(=O)Nc4cccc(F)c4)[nH]n3)ncnc2c1)CCOP(=O)(O)O [barasertib]
Method in brief: as §1

[2] = compound: CC[C@@H]1C(=O)N(C)c2cnc(Nc3ccc(C(=O)NC4CCN(C)CC4)cc3OC)nc2N1C1CCCC1
Method in brief: as §1

volasertib = compound: CC[C@@H]1C(=O)N(C)c2cnc(Nc3ccc(C(=O)N[C@H]4CC[C@H](N5CCN(CC6CC6)CC5)CC4)cc3OC)nc2N1C(C)C [volasertib]
Method in brief: as §1

[3] = compound: CCn1c(C(=O)N(C2CC2)C2CC2)cc2c3c(ncn3C)c(Nc3cc(C)n(C)n3)nc21
Method in brief: as §1

[4] = compound: CCn1cc(-c2ccnc3[nH]c(-c4cccc(CN(C)C)c4)cc23)c(-c2ccc(NC(=O)N(C)C)cc2)n1
Method in brief: as §1

[5] = compound: CN1CCC(CNc2ccc3ncc(-c4cccc(OC(F)(F)F)c4)n3n2)CC1
Method in brief: as §1

saracatinib = compound: CN1CCN(CCOc2cc(OC3CCOCC3)c3c(Nc4c(Cl)ccc5c4OCO5)ncnc3c2)CC1 [saracatinib]
Method in brief: as §1

sotrastaurin = compound: CN1CCN(c2nc(C3=C(c4c[nH]c5ccccc45)C(=O)NC3=O)c3ccccc3n2)CC1 [sotrastaurin]
Method in brief: as §1

Measured: log2 fold change

PPP1R14C (UniProt Q8TAE6)
inactive: vemurafenib -0.183 | [1] 0.008 | barasertib 0.002 | [2] -0.084 | volasertib 0.037 | [3] 0.072 | [4] -0.217 | [5] 0.017 | saracatinib -0.022

PPP2R1B isoform 2 (UniProt P30154)
inactive: vemurafenib 0.032 | [1] -0.013 | barasertib 0.019 | [2] -0.01 | volasertib -0.055 | [3] -0.001 | [4] 0.086 | [5] -0.075 | saracatinib 0.008 | sotrastaurin 0.011

PPP6C isoform 3 (UniProt O00743)
inactive: vemurafenib -0.018 | [1] -0.02 | barasertib 0.005 | [2] 0.023 | volasertib -0.004 | [3] 0.032 | [4] -0.023 | [5] 0.05 | saracatinib -0.003 | sotrastaurin -0.004

PRMT2 (UniProt P55345)
inactive: vemurafenib 0.067 | [1] 0.048 | barasertib -0.106 | [2] 0.007 | volasertib -0.303 | [3] -0.065 | [4] -0.109 | [5] -0.031 | saracatinib -0.117

PPP5C (UniProt P53041)
inactive: vemurafenib 0.017 | [1] 0.003 | barasertib -0.03 | [2] 0.034 | volasertib 0.019 | [3] -0.014 | [4] -0.084 | [5] 0.063 | saracatinib -0.004 | sotrastaurin -0.002

Copied from the entries so far (2 entries):
PPP6C isoform 3 (UniProt O00743)
inactive: vemurafenib -0.018 | [1] -0.02 | barasertib 0.005 | [2] 0.023 | volasertib -0.004 | [3] 0.032 | [4] -0.023 | [5] 0.05 | saracatinib -0.003 | sotrastaurin -0.004

PRMT2 (UniProt P55345)
inactive: vemurafenib 0.067 | [1] 0.048 | barasertib -0.106 | [2] 0.007 | volasertib -0.303 | [3] -0.065 | [4] -0.109 | [5] -0.031 | saracatinib -0.117

The list goes on:

PRKAR1B (UniProt P31321)
inactive: vemurafenib -0.003 | [1] -0.046 | barasertib 0.079 | [2] -0.062 | volasertib -0.084 | [3] 0.156 | [4] -0.031 | [5] -0.068 | saracatinib 0.044 | sotrastaurin -0.018

PRPF3 (UniProt O43395)
inactive: vemurafenib 0.001 | [1] 0.015 | barasertib 0 | [2] 0.017 | volasertib -0.035 | [3] 0.018 | [4] 0.127 | [5] -0.045 | saracatinib -0.002 | sotrastaurin -0.014

PRKDC (UniProt P78527)
inactive: vemurafenib 0.132 | [1] 0.014 | barasertib -0.009 | [2] -0.058 | volasertib -0.062 | [3] 0.063 | [4] -0.12 | [5] 0.097 | saracatinib -0.007 | sotrastaurin 0.048

PPP1R18 (UniProt Q6NYC8)
inactive: vemurafenib 0.021 | [1] 0.004 | barasertib 0.051 | [2] 0.008 | volasertib 0.001 | [3] 0 | [4] 0.051 | [5] -0.026 | saracatinib 0.029 | sotrastaurin -0.024

PPP1R14A (UniProt Q96A00)
inactive: vemurafenib 0.052 | [1] -0.022 | barasertib -0.027 | [2] 0.097 | volasertib 0.093 | [3] -0.059 | [4] 0.028 | [5] 0.019 | saracatinib 0.024 | sotrastaurin 0.011

PRKX (UniProt P51817)
inactive: vemurafenib 0.012 | [1] 0 | barasertib 0.127 | [2] -0.111 | volasertib -0.147 | [3] -0.189 | [4] -0.225 | [5] 0.389 | saracatinib 0.019

PRDX5 (UniProt P30044)
inactive: vemurafenib -0.013 | [1] -0.005 | barasertib 0.016 | [2] 0.062 | volasertib 0.025 | [3] -0.015 | [4] -0.004 | [5] 0.01 | saracatinib -0.014 | sotrastaurin -0.014

PPP2CA (UniProt P67775)
inactive: vemurafenib 0.061 | [1] -0.008 | barasertib -0.012 | [2] 0.032 | volasertib -0.012 | [3] 0.02 | [4] 0.13 | [5] 0.049 | saracatinib 0.039 | sotrastaurin -0.047

PPP1R16A (UniProt Q96I34)
inactive: vemurafenib -0.057 | [1] 0.083 | barasertib -0.054 | [2] 0.021 | volasertib -0.051 | [3] 0.024 | [4] -0.154 | [5] 0.038

PPP1CA (UniProt P62136)
inactive: vemurafenib -0.035 | [1] -0.024 | barasertib -0.003 | [2] 0.024 | volasertib -0.007 | [3] 0.022 | [4] -0.003 | [5] 0.045 | saracatinib -0.014 | sotrastaurin -0.02
